Source: publication PMC12114683, “The Molecular Chaperone TCP1 Affects Carcinogenicity and Is a Potential Therapeutic Target for Acute Myeloid Leukemia” (Pharmaceutics, 2025)
These are yes or no findings as the source states them, for the method shown. Binding seen in cells or lysates may run through a third protein. Some entries that bind do so weakly or less than the wild type.

Chains of the proteins cited; added tags and fusions are not shown.
UniProt P17987: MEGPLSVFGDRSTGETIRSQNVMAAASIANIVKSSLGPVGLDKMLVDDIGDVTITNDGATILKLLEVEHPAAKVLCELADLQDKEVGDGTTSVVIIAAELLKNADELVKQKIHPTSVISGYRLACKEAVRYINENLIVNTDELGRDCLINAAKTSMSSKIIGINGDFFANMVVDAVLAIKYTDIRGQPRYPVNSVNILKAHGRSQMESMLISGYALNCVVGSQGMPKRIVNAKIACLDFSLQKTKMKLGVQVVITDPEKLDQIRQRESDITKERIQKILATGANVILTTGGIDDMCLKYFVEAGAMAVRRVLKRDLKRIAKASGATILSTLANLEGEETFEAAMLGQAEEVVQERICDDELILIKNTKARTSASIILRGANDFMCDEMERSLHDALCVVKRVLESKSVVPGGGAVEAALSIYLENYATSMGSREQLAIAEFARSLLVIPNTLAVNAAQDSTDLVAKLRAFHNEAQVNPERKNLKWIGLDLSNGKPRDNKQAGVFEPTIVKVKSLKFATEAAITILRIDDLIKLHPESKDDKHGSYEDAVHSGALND
UniProt Q12834: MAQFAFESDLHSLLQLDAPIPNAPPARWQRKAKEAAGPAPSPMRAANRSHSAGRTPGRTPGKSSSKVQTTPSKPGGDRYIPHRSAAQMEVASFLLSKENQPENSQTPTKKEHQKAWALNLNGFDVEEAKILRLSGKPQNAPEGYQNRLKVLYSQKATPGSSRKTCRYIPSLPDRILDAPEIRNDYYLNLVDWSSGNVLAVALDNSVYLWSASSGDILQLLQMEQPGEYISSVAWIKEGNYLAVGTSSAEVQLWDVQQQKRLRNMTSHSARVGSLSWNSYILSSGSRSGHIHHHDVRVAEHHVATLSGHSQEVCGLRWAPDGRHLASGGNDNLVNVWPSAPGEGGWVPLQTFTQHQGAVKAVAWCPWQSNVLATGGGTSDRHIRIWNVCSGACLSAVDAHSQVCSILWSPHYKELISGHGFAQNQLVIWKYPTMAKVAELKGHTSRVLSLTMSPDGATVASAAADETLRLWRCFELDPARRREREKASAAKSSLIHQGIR
UniProt P53350: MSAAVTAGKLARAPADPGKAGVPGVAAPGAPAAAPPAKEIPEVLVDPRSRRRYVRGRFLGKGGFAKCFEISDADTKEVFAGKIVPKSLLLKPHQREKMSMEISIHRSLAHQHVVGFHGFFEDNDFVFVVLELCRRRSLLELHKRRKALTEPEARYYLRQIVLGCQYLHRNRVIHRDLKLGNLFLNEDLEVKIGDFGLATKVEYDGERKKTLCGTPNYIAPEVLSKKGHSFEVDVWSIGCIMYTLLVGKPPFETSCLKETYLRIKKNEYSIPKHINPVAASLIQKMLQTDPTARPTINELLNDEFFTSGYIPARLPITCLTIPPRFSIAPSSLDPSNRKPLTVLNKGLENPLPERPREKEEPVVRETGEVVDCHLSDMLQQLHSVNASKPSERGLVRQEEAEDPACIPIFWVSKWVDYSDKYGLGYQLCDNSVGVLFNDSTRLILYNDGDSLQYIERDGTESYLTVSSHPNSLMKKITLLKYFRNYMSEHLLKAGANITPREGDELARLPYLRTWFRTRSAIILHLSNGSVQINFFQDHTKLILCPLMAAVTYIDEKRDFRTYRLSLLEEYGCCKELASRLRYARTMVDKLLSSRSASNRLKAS

Legend:
[1] = molecular target: T-complex protein 1 (TCP1) (human (endogenous in HL-60-G4, KG1α, Kasumi-1)) (UniProt P17987); assay: co-IP; cell lysate pre-cleared with Protein A/G magnetic beads; 1 μg TCP1 antibody (normal rabbit IgG as control) at 4 °C for 12 h, beads 6 h; Western blot; scramble and shTCP1 cells (Figure 3D); for CDC20 cells with and without FTY720 for 24 h (Figure 7F)
[2] = molecular target: T-complex protein 1 (TCP1) (human (endogenous in HL-60-G4, KG1α, Kasumi-1)) (UniProt P17987); assay: condition: only cells treated with 30 μmol L^−1 FTY720 for 24 h; co-IP; as a1, cells treated before lysis with FTY720 for 24 h: 30 μmol·L^−1 (HL-60-G4) or 40 μmol·L^−1 (Kasumi-1)

binding [1] | binding [2] | Substance
binds | – | CDC20 (from UniProt Q12834 1-499)
binds | no binding | PLK1 (from UniProt P53350 1-603)
